Assay results published in article PMC10163288.
The other results are listed elsewhere or left out.

B1: il2ra_site1_3nfp_normal_mot_HHH_b1_07644_af2_000000110_0001_40_57_H_._91f0cba056638229c376853e1afea4e2_0001_1_0001_0000500039_0000001_0_af2pred_0001_af2pred_1 (protein)
chain: STVERVIEDLRRLGDPRAEELAEILEELLRRGVPPREVLEEAAKVAEELGDPIAAELLRRAARLL
B2: il2ra_site1_3nfp_sap_20_mot_ems_3hC_501_000000016_0001_1_20_H_._HHH_b2_04541_af2_0001_0000200022_0000001_1_0001 (protein)
chain: DDRIAKRIDELLRKIPDPELLQALWKLLEIFIRDPERAIEELRELVKEFGDPLAEEILELLEEAK
B3: il2ra_site2_2erj_sap_18_mot_HHH_b1_04373_af2_000000118_0001_18_33_H_._HHH_b2_03515_0001_0000500015_0000001_0_0001 (protein)
chain: SSSSLEERIEELYELIEELLKRGDVQRVNEVLTEILRLAEEIGDPEVIRLAWEALRLSVERHSSS
B4: il2ra_site1_3nfp_sap_14_mot_7e5d6dae1157c95132ff0874b0fd9e6b_0001_1_af2_000000004_0001_1_12_H_._HHH_b2_06908_0001_0000800038_0000001_0_0001 (protein)
chain: SKVILYAIEQFKKDGIPPEKIVEWLLEAAKAIGLPPEELEKMLEELLERTGDPLLERLLELLEER
B5: il2ra_site1_2b5i_sap_10_mot_HHH_b1_01419_af2_000000080_0001_42_53_H_._HHH_b2_00817_0001_0000100005_0000001_0_0001_af2pred_dldesign_0_af2pred (protein)
chain: SSSSDEIYDLYRKALELYKAGKYEEALELLKKAKKLAKEKNDEKIIKDLDYLIELVEKSLSSSSS
B6: il2ra_site2_3nfp_normal_mot_HHH_b1_04762_000000120_0001_42_54_H_._HHH_b1_01332_af2_0001_0000400017_0000001_0 (protein)
chain: SSSSSDAEEYLRAALLLAREAIEQGDEEQAEKLLRLIRKLAEDAKDEEALREAEELLRLVGSSSS
B7: il2ra_site2_2erj_sap_19_mot_HHH_b1_06697_000000025_0001_41_54_H_._HHH_b1_04451_0001_0000600031_0000001_0_0001 (protein)
chain: DEEHEAAVIVWKLNDFDLWSALLDLLRLKAHGTLTPELEELLEQIVELILNGDPEEARRLAKEVQ
B8: il2ra_site2_2erj_sap_15_mot_HHH_b1_02408_000000223_0001_1_20_H_._HHH_b1_08334_0001_0000600027_0000001_1_0001 (protein)
chain: SSSSSDLHELYELANLLMELLHKGDREEFEHIYEEAEELAKELDSPNAREFIEFLFRELHSSSSS
B9: il2ra_site2_3nfp_normal_mot_HHH_b2_07007_000000117_0001_21_37_H_._HHH_b1_07250_af2_0001_0000100001_0000001_0 (protein)
chain: SSSSSEEERIEELLEQIREAIEEGDEEKARRLLQEVTNLVFELRDFEKFIEVLRLAQLLLSSSSS
B10: il2ra_site1_1z92_sap_13_mot_HHH_b2_01038_000000100_0001_1_17_H_._HHH_b1_03230_0001_0000800041_0000001_0_0001_af2pred_0001_af2pred_1 (protein)
chain: SDERSLRRIAESASKLAGVTSVEVRVENGHVTVHVEADDDEAEALLRDLRQFAEFLGLEVEITIE
B11: il2ra_site2_3nfp_sap_23_mot_HHH_b2_07186_000000029_0001_1_18_H_._HHH_b2_02278_0001_0000100015_0000001_1_0001 (protein)
chain: SSSSDVEELIEEARELIEEGDTLRAFEALQEATELARELGDPELLERLDELSQAILEREGSSSSS
B12: il2ra_site2_2erj_normal_mot_af86707857d369f3e1d85dcabc5f9321_0001_000000201_0001_14_29_H_._HHH_b1_08035_af2_0001_0000400017_0000001_0 (protein)
chain: SSSSDELEELLEQARELIEEGDPEEALKVLSEAFELAYRLGDHRAAAEIIELAHQVIRSESSSSS
B13: il2ra_site1_1z92_normal_mot_HHH_b1_05897_000000193_0001_23_40_H_._HEEHE_3088_af2_0001_0000300010_0000001_0_af2pred_0001_af2pred (protein)
chain: DDEEDVERAVEELARHAGVPEVEVSRSNGEFSVTFHGDEDYARAASRAVEIILRSAGIEVEVRTE
B14: il2ra_site1_3nfp_normal_mot_e80b558ee5422d85aa46efdc370d0602_0001_af2_000000114_0001_54_65_H_._HHH_b1_06938_af2_0001_0000100002_0000001_0_1_af2pred_0001_af2pred … (protein)
chain: SSSSDSHEFLEKLVEEAFRRNDKHQLKALIRMIEHALEKHGDPEVEELLKEARELLEELRSSSSS
B15: il2ra_site2_3nfp_normal_mot_HHH_b1_08076_af2_000000138_0001_43_55_H_._HHH_b2_03973_0001_0000300011_0000001_0 (protein)
chain: SSSSDVEEAAERLLELAILRLREEGDEETVEELEELLEQYKETGDPQVLHEALQIAVRALSSSSS
B16: il2ra_site1_2b5i_sap_27_mot_e4f16f412d24973e63efe4e4a8bb3ce7_0001_1_af2_000000119_0001_1_13_H_._HHH_b2_04792_0001_0000100012_0000001_0_0001_af2pred_dldesign_0_a … (protein)
chain: SSSSSEEIRELVEELLEEAKKLKDKKERYKLLKLALRLARKHNDEELIAKVEAFLKEVSKSSSSS
B17: il2ra_site2_3nfp_normal_mot_HHH_b2_04230_000000235_0001_39_52_H_._72a79b14e1a0e827e78e129a6f5f8f0c_0001_1_0001_0000300027_0000001_0 (protein)
chain: DQELSQRIYELAREGDPVAFLLYALLAEVAYKGDPELRRLLEEALEALERGNPEEAEEIVHKALQ
B18: il2ra_site1_1z92_sap_14_mot_HHH_b1_00561_af2_000000294_0001_1_19_H_._HHH_b2_00438_0001_0000300040_0000001_0_0001 (protein)
chain: SLEELEEEVKEAAENNDPELLRELLERLEEISGDPRLATQYLVILIAKVLNIPPEEAKKIVEEVK

These binders were tested against il2ra, P01589 (assay: yeast display titration).

Apparent Kd, inactive:
B1 no binding seen
B2 no binding seen
B3 no binding seen
B4 no binding seen
B5 no binding seen
B6 no binding seen
B7 no binding seen
B8 no binding seen
B9 no binding seen
B10 no binding seen
B11 no binding seen
B12 no binding seen
B13 no binding seen
B14 no binding seen
B15 no binding seen
B16 no binding seen
B17 no binding seen
B18 > 105 nM

As a short view, some entries already given.
Apparent Kd, inactive:
B12 no binding seen
B13 no binding seen
B14 no binding seen
B15 no binding seen
